Laboratory results reported in PubChem BioAssay AID248 (DTP/NCI, 2004).
The list is a part of this screen's results and no random one: it gathers tests that were run many times, whatever their T/C, doses with no T/C, and many T/C values between a quarter and a half above the control. Other doses and runs of a compound stand elsewhere. T/C: endpoint of the treated group in % of that of the vehicle group. Some doses have a count of surviving animals in place of a T/C: the source holds a T/C of zero for them, seemingly a mark for toxic or unscored doses. Some doses without a T/C left all or most animals alive at the check, yet need not have been tolerated: the source hardly ever lists a survival T/C far under the control, and the zero likely stands for such cases as well. Survivors were counted at the toxicity check, usually on the fifth day, unless a day is given; later deaths do not show. Schedules are NCI's codes, taken here to give the interval after Q, in days (D) or hours (H), and the number of doses after X. Some doses were run more than once; the results are listed from low to high. Some schedules carry Z or #; the key to these is not given. Where survival is the endpoint, this PubChem deposit counts one and a half times the control or more as active, and values a quarter to a half above the control carry no call in these data; other NCI protocols may use other cut-offs.

System: L1210 leukemia ip in BDF1 mice, survival T/C
Test: NCI In Vivo Anticancer Drug Screen. Data for tumor model L1210 Leukemia (intraperitoneal) in B6D2F1 (BDF1) mice
Settings: T/C endpoint: mean survival time, higher T/C = longer survival
[1] = dose: 100.0 mg/kg/injection, schedule: Q04DX003 (ip), vehicle: Klucel (hydroxypropylcellulose) (HPC)
[2] = dose: 200.0 mg/kg/injection, schedule: Q04DX003 (ip), vehicle: Klucel (hydroxypropylcellulose) (HPC)
[3] = dose: 400.0 mg/kg/injection, schedule: Q04DX003 (ip), vehicle: Klucel (hydroxypropylcellulose) (HPC)
[4] = dose: 50.0 mg/kg/injection, schedule: Q01DX009 (ip), vehicle: saline
[5] = dose: 100.0 mg/kg/injection, schedule: Q01DX009 (ip), vehicle: saline
[6] = dose: 400.0 mg/kg/injection, schedule: Q01DX001 (ip), vehicle: saline
[7] = dose: 100.0 mg/kg/injection, schedule: Q04DX002 (ip), vehicle: Klucel (hydroxypropylcellulose) (HPC)
[8] = dose: 200.0 mg/kg/injection, schedule: Q01DX001 (ip), vehicle: saline
[9] = dose: 150.0 mg/kg/injection, schedule: Q01DX001 (ip), vehicle: carboxymethylcellulose (CMC)
[10] = dose: 300.0 mg/kg/injection, schedule: Q01DX001 (ip), vehicle: carboxymethylcellulose (CMC)

## CS(=O)(=O)OCCN(CCOS(C)(=O)=O)c1ccc(C=Nc2cccc(Cl)c2)cc1
dose: 2.5 mg/kg/injection, schedule: Q04DX003 (ip), vehicle: Klucel (hydroxypropylcellulose) (HPC)
  T/C: 127 % of control
dose: 10.0 mg/kg/injection, schedule: Q04DX003 (ip), vehicle: Klucel (hydroxypropylcellulose) (HPC)
  T/C: 132 % of control
dose: 20.0 mg/kg/injection, schedule: Q04DX003 (ip), vehicle: Klucel (hydroxypropylcellulose) (HPC)
  T/C: 129 and 136 % of control
dose: 80.0 mg/kg/injection, schedule: Q04DX003 (ip), vehicle: Klucel (hydroxypropylcellulose) (HPC)
  survivor count: 6 of 6
[1]
  survivor count: 5 of 6
[2]
  survivor count: 4 of 6
[3]
  survivor count: 4 of 6

## Clc1ccc2c(c1)/C(=C\c1ccnc3ccccc13)c1cc(Cl)cc(Cl)c1-2
dose: 400.0 mg/kg/injection, schedule: Q01DX009 (ip), vehicle: Klucel (hydroxypropylcellulose) (HPC)
  survivor count: 2 of 6

## N#CSCC(CCCCCCCCC(=O)O)SC#N (stereo not given)
dose: 50.0 mg/kg/injection, schedule: Q04DX002 (ip), vehicle: saline with Tween-80
  survivor count: 0 of 3

## O=C1C=CC(=NCC(=O)OCc2ccccc2)O1
dose: 100.0 mg/kg/injection, schedule: Q04DX003 (ip), vehicle: acetone
  survivor count: 6 of 6

## Nc1ccc(-c2ccc(NC(=O)C(=O)O)cc2)cc1
[2]
  survivor count: 0 of 6
[3]
  survivor count: 0 of 6

## Cc1nc(N)nc(N)c1[N+](=O)[O-]
dose: 500.0 mg/kg/injection, schedule: Q01DX Z (oral), vehicle: methylcellulose (MC)
  survivor count: 3 of 6

## CCCCCCCCCCCCOC(=O)c1cc(O)c(O)c(O)c1
dose: 150.0 mg/kg/injection, schedule: Q01DX001 (ip), vehicle: acetone
  survivor count: 3 of 6
dose: 300.0 mg/kg/injection, schedule: Q01DX001 (ip), vehicle: acetone
  survivor count: 1 of 6

## CC1=C2CCC(C)CC23C2C(=O)OC(=O)C2C1C1C(=O)OC(=O)C13 (stereo not given)
[4]
  survivor count: 3 of 6
[5]
  survivor count: 2 of 6
dose: 200.0 mg/kg/injection, schedule: Q04DX003 (ip), vehicle: saline
  survivor count: 4 of 6
[6]
  survivor count: 3 of 6

## NC(=S)N/N=C/c1ccc(OC(=O)C23CC4CC(CC(C4)C2)C3)cn1
dose: 220.0 mg/kg/injection, schedule: Q01DX009 (ip), vehicle: saline with Tween-80
  survivor count: 10 of 10
dose: 335.0 mg/kg/injection, schedule: Q01DX009 (ip), vehicle: saline with Tween-80
  survivor count: 9 of 10
dose: 500.0 mg/kg/injection, schedule: Q01DX009 (ip), vehicle: saline with Tween-80
  survivor count: 9 of 10
dose: 750.0 mg/kg/injection, schedule: Q01DX009 (ip), vehicle: saline with Tween-80
  survivor count: 10 of 10
dose: 2640.0 mg/kg/injection, schedule: Q01DX001 (ip), vehicle: saline with Tween-80
  survivor count: 10 of 10
dose: 4000.0 mg/kg/injection, schedule: Q01DX001 (ip), vehicle: saline with Tween-80
  survivor count: 10 of 10
dose: 6000.0 mg/kg/injection, schedule: Q01DX001 (ip), vehicle: saline with Tween-80
  survivor count: 9 of 10
dose: 9000.0 mg/kg/injection, schedule: Q01DX001 (ip), vehicle: saline with Tween-80
  survivor count: 3 of 10

## O=C1C=C(c2ccccc2)C(c2ccccc2)C1=O (stereo not given)
[7]
  survivor count: 3 of 3

## CCC1CSC(=S)N1 (stereo not given)
dose: 12.5 mg/kg/injection, schedule: Q01DX009 (ip), vehicle: acetone
  survivor count: 3 of 6
dose: 18.0 mg/kg/injection, schedule: Q04DX003 (ip), vehicle: saline
  survivor count: 6 of 6
dose: 28.0 mg/kg/injection, schedule: Q04DX003 (ip), vehicle: saline
  survivor count: 1 of 6
dose: 40.0 mg/kg/injection, schedule: Q04DX003 (ip), vehicle: saline
  survivor count: 0 of 6
dose: 100.0 mg/kg/injection, schedule: Q01DX001 (ip), vehicle: saline
  survivor count: 0 of 6
[8]
  survivor count: 0 of 6
[6]
  survivor count: 0 of 6

## N=C(N)SCC(CSC(=N)N)c1cnnc2ccccc12 (stereo not given)
[8]
  survivor count: 1 of 6
[6]
  survivor count: 0 of 6

## CC[As](=O)(O)c1ccccc1
dose: 25.0 mg/kg/injection, schedule: Q01DX009 (ip), vehicle: saline
  survivor count: 0 of 3 and 1 of 3
[4]
  survivor count: 0 of 3
[5]
  survivor count: 0 of 3 and 0 of 6
dose: 200.0 mg/kg/injection, schedule: Q01DX009 (ip), vehicle: saline
  survivor count: 0 of 6
dose: 400.0 mg/kg/injection, schedule: Q01DX009 (ip), vehicle: saline
  survivor count: 0 of 6

## CC(Cc1ccccc1)NCCCCl (stereo not given)
dose: 75.0 mg/kg/injection, schedule: Q01DX001 (ip), vehicle: carboxymethylcellulose (CMC)
  survivor count: 2 of 6
[9]
  survivor count: 1 of 6
[10]
  survivor count: 0 of 6

## O=[N+]([O-])c1cc([N+](=O)[O-])c(Br)cc1F
dose: 10.0 mg/kg/injection, schedule: Q01DX009 (ip), vehicle: Klucel (hydroxypropylcellulose) (HPC)
  survivor count: 6 of 6
[7]
  survivor count: 0 of 3
dose: 200.0 mg/kg/injection, schedule: Q04DX002 (ip), vehicle: Klucel (hydroxypropylcellulose) (HPC)
  survivor count: 0 of 3
dose: 400.0 mg/kg/injection, schedule: Q04DX002 (ip), vehicle: Klucel (hydroxypropylcellulose) (HPC)
  survivor count: 0 of 3

## CCN=C(NCC)c1ccc(NC(=O)c2ccc(C(=O)Nc3ccc(C(=NCC)NCC)cc3)c(Cl)c2)cc1
dose: 15.0 mg/kg/injection, schedule: Q01DX Z (ip), vehicle: carboxymethylcellulose (CMC)
  survivor count: 0 of 6
dose: 30.0 mg/kg/injection, schedule: Q01DX Z (ip), vehicle: carboxymethylcellulose (CMC)
  survivor count: 0 of 6
dose: 60.0 mg/kg/injection, schedule: Q01DX Z (ip), vehicle: carboxymethylcellulose (CMC)
  survivor count: 0 of 6
dose: 120.0 mg/kg/injection, schedule: Q01DX Z (ip), vehicle: carboxymethylcellulose (CMC)
  survivor count: 0 of 6

## COc1cc2c(cc1OC)/C(=N/N)CCC2
[1]
  survivor count: 2 of 6
[2]
  survivor count: 0 of 6

## COC1C(OC(=O)/C=C/C=C/C=C/C=C/C(=O)O)CCC2(CO2)C1C1(C)OC1CC=C(C)C (stereo not given)
dose: 80.0 mg/kg/injection, schedule: Q01DX Z (ip), vehicle: methylcellulose (MC)
  T/C: 125 % of control
[6]
  survivor count: 0 of 6

## O=C(CBr)Nc1ccccc1S(=O)(=O)F
dose: 75.0 mg/kg/injection, schedule: Q04DX003 (ip), vehicle: carboxymethylcellulose (CMC)
  survivor count: 0 of 6
[9]
  survivor count: 2 of 6
[10]
  survivor count: 1 of 6

## C=C(CCCCCCCCCCCCCCCC)C(=O)O
dose: 200.0 mg/kg/injection, schedule: Q04DX002 (ip), vehicle: saline with Tween-80
  survivor count: 3 of 3

## CC1(C)c2ccccc2C(=O)C1(Br)Cc1ccccc1 (stereo not given)
dose: 200.0 mg/kg/injection, schedule: Q01DX009 (ip), vehicle: saline with Tween-80
  survivor count: 0 of 6
dose: 400.0 mg/kg/injection, schedule: Q01DX009 (ip), vehicle: saline with Tween-80
  survivor count: 0 of 6

## Cn1[nH]c(NC=O)c2cc3c(=O)[nH]c(=O)cc3nc21
dose: 400.0 mg/kg/injection, schedule: Q01DX001 (ip), vehicle: Klucel (hydroxypropylcellulose) (HPC)
  survivor count: 5 of 6

## COC1=C(N2CC2)C(=O)C(OC)=C(N2CC2)C1=O
dose: 2.0 mg/kg/injection, schedule: Q01DX009 (ip), vehicle: carboxymethylcellulose (CMC)
  T/C: 137 % of control
dose: 3.0 mg/kg/injection, schedule: Q01DX009 (ip), vehicle: carboxymethylcellulose (CMC)
  T/C: 129 % of control
dose: 6.0 mg/kg/injection, schedule: Q01DX009 (ip), vehicle: carboxymethylcellulose (CMC)
  survivor count: 6 of 6
dose: 12.0 mg/kg/injection, schedule: Q01DX009 (ip), vehicle: carboxymethylcellulose (CMC)
  survivor count: 6 of 6

## [Co+2].[N-]=Cc1ccccc1O.[N-]=Cc1ccccc1O
[2]
  survivor count: 0 of 6
[3]
  survivor count: 0 of 6
